Assay results taken from USRE49873E1, “APP specific bace inhibitors (ASBIs) and uses thereof” (BUCK INSTITUTE FOR RESEARCH ON AGING, priority 2012, dated 2024).
For at least one compound, name, drawing or mass did not settle the structure.

Amino acid sequences for entries named in this document (tags omitted). Residues count along the entry.
UniProt P05067, 646-770 limits assumed: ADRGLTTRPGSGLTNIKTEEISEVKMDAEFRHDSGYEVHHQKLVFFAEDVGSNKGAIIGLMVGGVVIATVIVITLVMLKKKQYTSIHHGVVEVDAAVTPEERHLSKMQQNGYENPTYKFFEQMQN
UniProt P56817, 46-501: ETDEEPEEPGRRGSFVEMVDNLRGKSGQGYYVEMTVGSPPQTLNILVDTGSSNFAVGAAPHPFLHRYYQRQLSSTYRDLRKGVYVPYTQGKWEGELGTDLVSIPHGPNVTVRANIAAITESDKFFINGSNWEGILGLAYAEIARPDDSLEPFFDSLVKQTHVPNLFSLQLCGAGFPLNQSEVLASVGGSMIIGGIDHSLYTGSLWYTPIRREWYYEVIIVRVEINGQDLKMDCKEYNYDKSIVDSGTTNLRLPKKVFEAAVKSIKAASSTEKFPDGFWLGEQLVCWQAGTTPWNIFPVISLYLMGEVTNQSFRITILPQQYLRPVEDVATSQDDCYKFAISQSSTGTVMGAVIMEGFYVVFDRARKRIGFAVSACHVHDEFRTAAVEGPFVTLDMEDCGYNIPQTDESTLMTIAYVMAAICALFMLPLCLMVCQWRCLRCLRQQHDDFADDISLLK

Legend:
MBP-C125 APP = MBP-C125 APP (Homo sapiens, UniProt P05067); assay: Nitrocellulose filter ligand-binding (ligand blot) assay; settings: qualitative; UV and MALDI detection
Experimental: To explore the interaction of ASBIs with APP a ligand blot technique was used, where MBP-C125 APP was dot blotted on a nitrocellulose blot and binding to the protein was detected upon treatment with the bioflavonoids. A nitrocellulose filter-binding assay with bovine serum albumin (BSA) was used as a control. The binding of bioflavonoids was determined using both UV and MALDI mass spectrometric analysis.

[1] = system: APP-Gal4 transactivation in HEK293T cells; assay: APP-Gal4/Mint3/TAZ transactivation assay; format: cell-based; settings: Mint3 and TAZ present; galangin at 10 μM
Text: (§1) FIGS. 7A and 7B illustrate inhibition of APP-Gal4 and APLP2-Gal4 transactivation by galangin. […] This transactivation was inhibited by Galangin and BACE inhibitor IV. FIG. 7B: Potent transactivation of transcription was also achieved with APLP2 fused to the Gal4 DNA binding domain when both Mint3 and TAZ were present. This transactivation was inhibited by Galangin and BACE inhibitor IV. […] The normalized luciferase activity is expressed as a percentage of the DMSO treated control (FIGS. 7A, 7B). Error bars indicate SEM. (*, p<0.05; **, p<0.01; ***, p<0.001; n=3, student t test).
(§2) This assay system is described by Orcholski et al. (2011) J. Alzheimers Dis., 23(4):689-699. Transactivation is achieved upon transfection with Mint3 and Taz. […] The normalized luciferase activity was expressed as fold induction over transcription by APP-Gal4 alone (FIG. 7A), or as fold induction over APLP2-Gal4 alone (FIG. 7B).
(§3) HEK293T cells were co-transfected with five plasmids: (1) pG5E1B-luc, 0.3 μg; (2) pCMV-LacZ, 0.1 μg; (3) pMst-APP (APP-Gal4) or pcDNA3.1-APLP2-Gal4, 0.3 μg; (4) pCMV5-Mint3, 1.0 μg; (5) pEF-N-FLAG-TAZ, 1.0 μg. Cells were harvested 48 hr after transfection in 0.2 ml per well Cell Culture Lysis Buffer (Promega), and their luciferase and β-galactosidase activities were determined with the Promega luciferase assay kit and the Promega β-galactosidase assay kit, respectively. […]

[2] = molecular target: T1, BACE cleavage of the MBP-C125 APP substrate (Homo sapiens, UniProt P05067); assay: ASBI assay a): BACE cleavage of MBP-C125 substrate (C99 by AlphaLISA); format: biochemical
T1 construct: purchased Sigma (methods); R&D (HTS description) B9059; 931-AS-050
Experimental: As illustrated in the Examples, in one embodiment, an MBP-C125 APP695 wt fusion protein can be used as one of the substrates. The second substrate can be the commercially available P5-P5′ fluorescence substrate. Each of these substrates is incubated with recombinant BACE (R&D (cat#931-AS-050) in, for example, a 96 well plate format. For the MBP-C125 substrate the C-99 product from the BACE cleavage can be measured using an AlphaLisa assay as a readout. For the P5-5′ substrate the […] upon BACE cleavage can be used as the readout. An ASBI would inhibit the BACE cleavage of the MBP-C125 substrate while not being inhibitory of the fluorescence substrate.
A protein construct of Maltose-Binding-Protein carrying the 125 C-terminal residues of APP (1 uL of 1 mM in water) was incubated with a flavonoid (100 uM) for 15 minutes. The mix was then submitted to cleavage by BACE (Sigma #B9059, 5 μl of 3 unit/ml in BACE buffer) for 30 minutes. After 0, 10, 20 and 30 minutes, 2 uL the reaction mixture were frozen and the different time points were quantified simultaneously for the amount of APP-C99 created. The quantification was done by using a Perkin Elmer ALPHALisa Amyloid Amyloid Beta kit (AL275C) modified by replacing the anti-Abeta acceptor beads (AL275AC) with anti-APP acceptor beads (AL275AC) and making the antibody mix with 2×ALPHALisa buffer. […]

[3] = molecular target: T2, BACE cleavage of the P5-P5′ substrate (Homo sapiens, UniProt P56817); assay: ASBI assay b): P5-P5′ fluorescence substrate cleavage assay; format: biochemical; settings: flavonoids at 100 uM
T2 construct: purchased Sigma-Aldrich (kit); R&D (HTS description) CS0010; 931-AS-050
Experimental: As illustrated in the Examples, in one embodiment, an MBP-C125 APP695 wt fusion protein can be used as one of the substrates. The second substrate can be the commercially available P5-P5′ fluorescence substrate. Each of these substrates is incubated with recombinant BACE (R&D (cat#931-AS-050) in, for example, a 96 well plate format. For the MBP-C125 substrate the C-99 product from the BACE cleavage can be measured using an AlphaLisa assay as a readout. For the P5-5′ substrate the […] upon BACE cleavage can be used as the readout. An ASBI would inhibit the BACE cleavage of the MBP-C125 substrate while not being inhibitory of the fluorescence substrate. […]
A primary high-throughput screening (HTS) assay was set up for identification of ASBIs using a dual-substrate testing paradigm (FIGS. 3A & 3B). The previously reported (Sinha et al. (1999) Nature, 402: 537-540) BACE substrate the MBP-C125 APP695 wt fusion protein consisting of maltose binding protein fused to the carboxyterminal 125 amino acids of wild type APP, was used as the primary substrate; and the commercially available P5-P5′ fluorescence substrate, derived from the P5-P5′ residues of the BACE cleavage site of APP, was used as the secondary substrate. […]

[4] = system: Aβ1-40 and Aβ1-42 levels in hippocampal/entorhinal cortical tissue; assay: Pilot efficacy testing in PDAPP (J20) AD model mice, Aβ ELISA; settings: in vivo
Experimental: Galangin and progalangin (PG-1) were dissolved in 10% solutol/15% DMSO/75% polyethylene glycol (PEG). Stock solutions were prepared at 10 mg/ml for each compound and 100 ul was injected subcutaneously daily for 14 days at a dose of 40 mkd. There were 5 PDAPP AD model J20 mice in both the galangin and progalangin groups, and 9 vehicle-only treated J20 controls. Mice were anesthetized, blood collected for plasma, and brain tissue collected as described above 2 hours after injection on the last day of treatment. The right hemibrain was further microdissected to isolate hippocampus and entorhinal cortex and this combined tissue was used for biochemical analysis. The remaining tissue and plasma was sent to IAS for compound level analysis.
Aβ1-42 and Aβ1-40 levels were determined using the hippocampal/entorhinal cortical tissue. Briefly, frozen tissue samples were weighed, and a 20% w/v sonicate prepared in 5M guandine-HCl/50 mM Tris, pH8. Sonication was performed with sample tubes in ice water, 4×5 seconds at 60 Hz, then 3×5 seconds at 80 Hz. Samples were then rotated at room temperature for 3 hours and frozen at −20° C. until assay. Invitrogen ELISA kits were used for Aβ1-40 and Aβ1-42 according to the manufacturer's instructions.

[5] = system: APLP2-Gal4 transactivation in HEK293T cells; assay: APLP2-Gal4/Mint3/TAZ transactivation assay; format: cell-based; settings: Mint3 and TAZ present; galangin at 10 μM
Text: as §1, §2, §3

[6] = system: sAPPβ production by SH-SY5Y cells; assay: sAPPβ AlphaLisa in SH-SY5Y neuroblastoma cells; format: cell-based; settings: 1 μM
Experimental: APP is processed through two major pathways: the non-amyloidogenic pathway involves α-secretase cleavage, proteolyzing APP into sAPPα and α-CTF (C83), while the amyloidogenic pathway starts with β-secretase cleavage, cleaving APP into sAPPβ and β-CTF (C99). The β-CTF is then cleaved by the γ-secretase, which produces Aβ and AICD. The ability of the ASBIs to inhibit the β-secretase processing of APP was tested in SH-SY5Y neuroblastoma cells that express APP. The sAPPβ fragment formed from the BACE cleavage product was measured using an AlphaLisa assay from Perkin-Elmer (Cat# A2132). […] Testing of a panel of bioflavonoids led to the identification of galangin as an ASBI.

## C[C@@H]1O[C@@H](OC[C@H]2O[C@@H](Oc3c(-c4ccc(O)c(O)c4)oc4cc(O)cc(O)c4c3=O)[C@H](O)[C@@H](O)[C@@H]2O)[C@H](O)[C@H](O)[C@H]1O [Rutin]
MBP-C125 APP
  binding to the APP substrate: shows binding to the APP substrate
[1]
  APP-Gal4 transactivation: inhibit
[2]; HTS at 10 uM, flavonoid panel at 100 uM
  inhibition of BACE cleavage of the MBP-C125 substrate: single hit
[2]; in the ASBI assays
  dose at which effective as an ASBI: 1 µM
[3]
  inhibition of BACE cleavage of the P5-P5′ substrate: not preventing the cleavage of the P5-P5′ substrate
[4]
  effectiveness in the mouse model: not effective in the mouse model
[5]
  APLP2-Gal4 transactivation: inhibit
[6]
  production of sAPPβ: slightly inhibited the production of sAPPβ
